Measured values: PubChem BioAssay AID1794845 (National Center for Advancing Translational Sciences (NCATS), 2023)
Hit rate of the full screen: of about 6,900 compounds, fewer than 10 were called active. The call rests on the fitted dose curve; in most records, active means well fitted curve in the direction sought with a large enough effect; inconclusive means small, poorly fitted or top-dose-only effect, or another doubt; inactive means no such curve, though single readings can be large or run the other way. Some of the results follow.

The chains behind the UniProt entries cited, without tags or fusion partners. Where a name states a change or a piece, a line headed by the entry shows the natural chain unless it says otherwise.
UniProt C7C422: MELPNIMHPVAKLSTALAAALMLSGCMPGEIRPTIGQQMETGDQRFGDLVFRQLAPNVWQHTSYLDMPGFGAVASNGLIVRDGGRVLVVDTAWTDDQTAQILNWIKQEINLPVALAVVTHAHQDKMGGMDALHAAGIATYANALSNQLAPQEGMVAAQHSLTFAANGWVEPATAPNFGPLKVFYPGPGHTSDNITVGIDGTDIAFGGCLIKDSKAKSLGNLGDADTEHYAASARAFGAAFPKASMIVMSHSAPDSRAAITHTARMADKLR

Biological target: Metallo-beta-lactamase type 2 (Klebsiella pneumoniae) (UniProt C7C422)
Assay: qHTS to identify inhibitors of the New Delhi Metallo-beta-lactamase (NDM): primary screen against the NCATS Gemini Collection; further: % of control where 0% means no effect
Conditions: NDM-1 enzyme, meropenem hydrolysis, absorbance 300 nm; at 38.4 µM (top of the series) unless noted
In short: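 NDM-1 at 2 nM final in 50 mM HEPES pH 7.0, 1 uM ZnSO4, 0.01% Tween20, preincubated >30 min with compound. Meropenem 50 uM final added; absorbance at 300 nm after 30 min.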

Activity % (negative = inhibition), inactive:
Cc1nn(C)c(=O)n1C1CCN(S(=O)(=O)c2cccs2)CC1 -4.43%
C#CCNC(=O)C1CCc2nnc(C3CCN(C(=O)Nc4ccc(Cl)cc4)CC3)n21 (centres undefined) -1.28%
Cc1nncn1C1CN(S(=O)(=O)c2ccc3c(c2)CCC3)C1 5.53%
CC(C)CN1CCN(C(=O)c2ccc3c(c2)N(S(C)(=O)=O)CC3)CC1 -6.98%
CCNC(=O)N1CCC(Cc2ccc(C(=O)O)cc2)CC1 23.3%
Cc1noc(-c2ccc(C(C)(C)C)cc2)c1C(=O)NCCOc1ccccc1 9.89%
CCCn1c(C)cnc1C1CCN(S(=O)(=O)c2cn(C)cn2)C1 (centres undefined) -10.2%
CN(C)C[C@@H]1CN(c2ccncn2)C[C@H]1NC(=O)Cc1cccs1 9.72%
CCc1nc2c(=O)n(CC(=O)NC(C)c3ccc(F)cc3)nc(C)c2s1 (centres undefined) 5.59%
Cc1ccc2nc(CN(C)C(=O)C3CCC(=O)N(C4CCCCCC4)C3)[nH]c2c1 (centres undefined) -4.43%
Cc1noc(C)c1C(=O)N1CCC2(CC1)C(=O)NCN2C(=O)Cc1ccccc1 0.504%
c1ccc(-n2cncn2)c(Cn2ccnc2-c2cc3n(n2)CCCNC3)c1 22.1%
O=C(N[C@@H]1CN(c2ccncn2)C[C@H]1CO)C1CCCC1 1.33%
CCc1cc(C(=O)N2CCC(n3nccc3NC(=O)CCOc3ccccc3)CC2)no1 -0.148%
C[S+](=O)([O-])N1CCn2ncc(C(=O)NCc3ccc(Cl)nc3)c2C1 -3.12%
CC(C)CN1CC(C(=O)NCc2nc(-c3ccccc3)no2)CC1=O (centres undefined) 4.18%
CC(C)NC(=O)N[C@H]1CCN(C(=O)c2cnccn2)[C@@H]1C(=O)N[C@@H](CCCNC(=O)c1cnccn1)C(N)=O 8.17%
O=C(c1csc(Cc2ccccc2)n1)N1CCC2(CCCNC2)C1 (centres undefined) 43%
Cc1ccc(-c2ccccc2CN2CCN(C(=O)c3ccc(C(F)(F)F)cc3)CC2)cc1Cl 6.38%
NC(=O)[C@H](Cc1cccs1)NC(=O)[C@@H]1C[C@@H](NC(=O)c2cnccn2)CCN1C(=O)COCC(=O)O 6.79%
COCCNC(=S)N[C@H]1C[C@H]2C(=O)NC[C@@H](CCC(=O)NCc3ccccc3)N2C1 7.63% [at 57.5 µM]
CSCC(=O)N1CC[C@H](NC(=O)Nc2cccc(SC)c2)[C@H]1C(=O)N[C@H](Cc1ccccc1)C(N)=O 4.18%
CN(CCc1ccccn1)[C@@H]1[C@H](O)[C@H](CO)O[C@@H]1CNC(=O)c1ccc(C(F)(F)F)cc1 6.63%
Cc1ccc(NC(=O)N2C[C@@H](F)C[C@H]2C(=O)N2CCCCC2)cc1F -4.55%
CC(C)CNC(=O)C1CC(c2ccccc2F)=NO1 (centres undefined) -2.02%
C=CCNC(=O)N[C@H]1[C@H](O)[C@@H](N2CCC(Cc3ccccc3)CC2)[C@@H]2OC[C@H]1O2 -3.65% [at 57.5 µM]
C[C@@H](NC(=O)C1=C[C@@H](NS(=O)(=O)c2cccc(C(F)(F)F)c2)[C@@H](O)[C@H](O)C1)C(N)=O 4.92%
CCCS(=O)(=O)N1CCCC(OCc2noc(C3CCOCC3)n2)C1 (centres undefined) -2.91%
COc1ccc(CNC(=O)c2cc3c(s2)CN(C2CC2)C3)cc1OC 19.4%
COC[C@H]1NC(=O)CC[C@H]1C(=O)O -0.13%
O=C(c1ccccc1C(F)(F)F)N1CCc2nc3cc[nH]n3c(=O)c2C1 5.52%
CCCN(CC1CCOC1)S(=O)(=O)c1cc(F)ccc1C (centres undefined) 5.17%
Cc1nc(C(=O)N2CC[C@H](NS(=O)(=O)c3cn(C)cn3)C[C@H]2C(=O)N[C@H](Cc2ccccc2)C(N)=O)cs1 28.5%
CNc1ccc(C(=O)NCCCc2c(C)noc2C)cn1 9.78%
Cc1nnc(-c2cc(-c3ccc(CO)cc3)ccn2)n1Cc1ccccc1 1.09% [at 57.5 µM]
Cc1cccc2c1nc1n2[C@@H](CNCc2nc3ccccc3n2C)COC1 -2.44% [at 57.5 µM]
O=C(Nc1ccccc1)N1CCCC(C(=O)N2CCC(N3CCOCC3=O)CC2)C1 (centres undefined) -1.48%
COCCn1c(CN(C)Cc2sccc2C)cnc1S(=O)(=O)CC1CCCCC1 24.9%
Cc1cnc(C(=O)N2C[C@H]3OC(=O)N(CCc4cccc(Cl)c4)[C@H]3C2)[nH]1 -2.73%
O=C1CC(C(=O)O)C2(CCN(c3cc(C(=O)O)c4ccccc4n3)CC2)N1 (centres undefined) -9.55%
CC(C)c1noc(CC2CCN(C(=O)c3cc4ccccc4[nH]3)CC2)n1 2%
COc1ccccc1Nc1ncc2c(n1)CN(C(=O)c1cc3ccccc3n1C)CCN2 46.4% [at 57.5 µM]
Cc1cn2c(=O)cc(CN3CC[C@@](C)(O)[C@@H](O)C3)nc2s1 1.93%
CCCS(=O)(=O)N1C[C@@H](COC)[C@H](c2nc(C)no2)C1 19.5%
CC(=O)Nc1cccc(-c2n[nH]c3c2CC(=O)N(CCOc2ccccc2)C3)c1 5.04% [at 57.5 µM]
O=c1n(CCN2CCCN([S+](=O)([O-])c3cccc(C(F)(F)F)c3)CC2)nc2n1CCCC2 1.72%
Cc1nn(C)c(C)c1CCC(=O)NCCc1ncc(C)n1C1CCCCC1 0.104%
CS(=O)(=O)N(C1CCOCC1)C1CN(S(=O)(=O)c2ccccc2)C1 -4.48%
Nc1nc(C2CC(NC(=O)c3[nH]nc(N)c3-c3ccccc3)C2)cc(=O)[nH]1 (centres undefined) 6.22%
c1ccc(CN2CCNc3cnc(Nc4ccc(N5CCOCC5)cc4)cc3C2)cc1 14.9% [at 57.5 µM]
COCCOCC1(CNC(=O)c2cccnc2)C[C@@H](O)[C@@H](O)C1 (some centres undefined) 63.5% [at 57.5 µM]
Cc1cccc(C(=O)N2CC[C@H]3C(=O)NCCCCCCN(Cc4ccncc4)[C@@H]3C2)c1 1.14%
COC(=O)CNC(=O)N1CCC2(CC1)CC(c1ccccc1)CN(C)C2 (centres undefined) 13%
CCn1cc(S(=O)(=O)N2CCCC2Cc2noc(-c3ccccc3)n2)cn1 (centres undefined) 11.3%
CN(Cc1cccnc1)C1CCCc2ccccc21 (centres undefined) 24.9% [at 57.5 µM]
COC1CN(c2cccc(F)c2)C12CCN(S(=O)(=O)c1cccs1)CC2 (centres undefined) -0.611%
Cc1ccn2c(C(=O)N3CCCC(c4[nH]ncc4-c4ccccc4)C3)nnc2n1 (centres undefined) 0.204%
CC(=O)N1CCC(c2nnc3n2C(C(=O)Nc2ccc(C)cc2)CC3)CC1 (centres undefined) -2.15%
NCC(=O)N1CCCC2(Cc3ccccc3CN2S(=O)(=O)c2ccccc2)C1 (centres undefined) -1.87%
CCNc1nc2c(s1)C(c1cccc(F)c1)CC(=O)N2 (centres undefined) 0.957%
CNC(=O)[C@@H]1CN(C(=O)c2ccc(OC)nc2OC)C[C@H]1c1n[nH]c(C)n1 0.858%
O=C1NCCCCCN(C(=O)Cc2cccc(F)c2)[C@H]2CCC[C@@H]12 61.2%
CC(C)CC(=O)Nc1ccnn1C1CCN(C(=O)c2scc3c2CCCC3)CC1 -1.41%
CCCCNC(=O)c1nnn2cc(-c3ccc(Cl)cc3)[nH]c(=O)c12 13.9%
O=C(c1ccc2cc[nH]c2c1)N1CCCC(Cc2noc(-c3ccccn3)n2)C1 (centres undefined) 31.3%
Cc1cnc(C2CC2)n1C1CCCN(Cc2ccccc2)C1 (centres undefined) -3.04%
c1ccc(OCCCn2cc(-c3cncnc3)nn2)cc1 4.76%
CC(C)Cc1cc(C(=O)NCC2CCN(c3cnn(C)c(=O)c3)C2)no1 (centres undefined) 26.2%
CCC(CC)C(=O)N1CC[C@@H]2COCCN(Cc3cccnc3)[C@@H]2C1 2.78%
CC(C)c1cc(C(=O)N[C@@H]2COCC[C@@H]2OCc2cscn2)cs1 51.4%
Cc1ccc(C(=O)N2CC(CN3C(=O)c4c(c(C)nn4-c4ccccc4)C3C3CC3)C2)cc1 (centres undefined) 2.76%
Cn1c(Cn2cccn2)nnc1C1CC(NC(=O)c2sccc2N)C1 (centres undefined) 8.34%
NC(=O)[C@@H]1CN(Cc2ccccn2)C[C@H]1COc1ccccc1 0.444%
Cc1ccc(NC(=O)N2CC(n3cc(C(=O)NCc4ccncc4)nn3)C2)cc1C 67.1%
O=C1CO[C@H]2CN(Cc3ccc(C(F)(F)F)cc3)C[C@H]2N1 -14.3% [at 57.5 µM]
COCC(=O)N[C@H]1C[C@@H](CO)N(Cc2cccc(OC)c2)C1 13.7%
COCCNC(=O)[C@@H]1C[C@H](Oc2ccccc2)CN1C(=O)c1cnccn1 3.13%
CS(=O)(=O)N(Cc1cccnc1)C1CN(C(=O)Nc2ccc3c(c2)OCCO3)C1 -0.602%
CS(=O)(=O)N1C[C@@H](COc2ccccc2)[C@H](C(N)=O)C1 48.6%
COc1ccc(-n2c(CCN)n[nH]c2=O)c(C)c1 11.2%
CC(=O)Nc1cccc(C(=O)N2CCC3(CC2)N=C(c2ccc(C)cc2)NO3)c1 -0.961%
CN1CCCN(S(=O)(=O)c2cccs2)c2ccccc21 -0.923%
O=C(c1ccc(C(F)(F)F)cc1)N1CCCC(C(=O)N2CCC(c3nc4ccncc4[nH]3)CC2)C1 (centres undefined) 2.62%
O=C(c1ccccc1F)N1CCC(Cc2nc(-c3cnccn3)no2)CC1 14.9%

21 compounds out of the list, ordered by count of non-hydrogen atoms, high to low.
Activity % (negative = inhibition), inactive:
CC(C)NC(=O)N[C@H]1CCN(C(=O)c2cnccn2)[C@@H]1C(=O)N[C@@H](CCCNC(=O)c1cnccn1)C(N)=O 8.17%
Cc1nc(C(=O)N2CC[C@H](NS(=O)(=O)c3cn(C)cn3)C[C@H]2C(=O)N[C@H](Cc2ccccc2)C(N)=O)cs1 28.5%
CSCC(=O)N1CC[C@H](NC(=O)Nc2cccc(SC)c2)[C@H]1C(=O)N[C@H](Cc1ccccc1)C(N)=O 4.18%
O=C(c1ccc(C(F)(F)F)cc1)N1CCCC(C(=O)N2CCC(c3nc4ccncc4[nH]3)CC2)C1 (centres undefined) 2.62%
Cc1ccc(-c2ccccc2CN2CCN(C(=O)c3ccc(C(F)(F)F)cc3)CC2)cc1Cl 6.38%
O=c1n(CCN2CCCN([S+](=O)([O-])c3cccc(C(F)(F)F)c3)CC2)nc2n1CCCC2 1.72%
c1ccc(CN2CCNc3cnc(Nc4ccc(N5CCOCC5)cc4)cc3C2)cc1 14.9% [at 57.5 µM]
C[C@@H](NC(=O)C1=C[C@@H](NS(=O)(=O)c2cccc(C(F)(F)F)c2)[C@@H](O)[C@H](O)C1)C(N)=O 4.92%
COCCn1c(CN(C)Cc2sccc2C)cnc1S(=O)(=O)CC1CCCCC1 24.9%
NCC(=O)N1CCCC2(Cc3ccccc3CN2S(=O)(=O)c2ccccc2)C1 (centres undefined) -1.87%
CCn1cc(S(=O)(=O)N2CCCC2Cc2noc(-c3ccccc3)n2)cn1 (centres undefined) 11.3%
CCc1nc2c(=O)n(CC(=O)NC(C)c3ccc(F)cc3)nc(C)c2s1 (centres undefined) 5.59%
CC(C)CN1CC(C(=O)NCc2nc(-c3ccccc3)no2)CC1=O (centres undefined) 4.18%
O=C(c1csc(Cc2ccccc2)n1)N1CCC2(CCCNC2)C1 (centres undefined) 43%
COCCOCC1(CNC(=O)c2cccnc2)C[C@@H](O)[C@@H](O)C1 (some centres undefined) 63.5% [at 57.5 µM]
Cc1cnc(C2CC2)n1C1CCCN(Cc2ccccc2)C1 (centres undefined) -3.04%
CCCN(CC1CCOC1)S(=O)(=O)c1cc(F)ccc1C (centres undefined) 5.17%
CCNc1nc2c(s1)C(c1cccc(F)c1)CC(=O)N2 (centres undefined) 0.957%
CN(Cc1cccnc1)C1CCCc2ccccc21 (centres undefined) 24.9% [at 57.5 µM]
COc1ccc(-n2c(CCN)n[nH]c2=O)c(C)c1 11.2%
COC[C@H]1NC(=O)CC[C@H]1C(=O)O -0.13%

Two entries drawn at random from those above:
Activity % (negative = inhibition), inactive:
CN(C)C[C@@H]1CN(c2ccncn2)C[C@H]1NC(=O)Cc1cccs1 9.72%
Cc1ccc(C(=O)N2CC(CN3C(=O)c4c(c(C)nn4-c4ccccc4)C3C3CC3)C2)cc1 (centres undefined) 2.76%
